Here are results for 12 compounds from the supplement of paper PMC4604168 (melanoma cell lines).

Test systems include WM115; WM1716; WM1745; WM3526; WM3619; WM451Lu.
What all share (assay): cleaved PARP positive nuclei fraction relative to DMSO control; melanoma cells; higher = more apoptosis
Holding throughout (conditions): library dose: low library concentration; 72 h

The list shows a part of the results. Single values are uncertain, as repeats are few or missing.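 Imaging used 1,536-well plates; nuclei positive for cleaved PARP by antibody were divided by total DNA-stained nuclei to yield the apoptosis fraction. Doses for screening kept most cells viable, and cell lines differ markedly in resting and induced cleaved-PARP levels.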

On to `OCc1c[nH]c2ccccc12` [Indole-3-carbinol] + CC(C)CCN1c2nc(Nc3cc(F)c(O)c(F)c3)ncc2N(C)C(=O)C1C [BID1870] (first compound 0.8 µM, partner dose 0.2 µM), for which the “cleaved PARP positive nuclei fraction” value came out at 153% with WM115; 106% in the test with WM1716; 90.6% with WM1745; 163% with WM3526; 85.9% in the test on WM3619; 78.5% in the test with WM451Lu.

In the case of `CC(C)(C)c1cnc(CSc2cnc(NC(=O)C3CCNCC3)s2)o1` + O=C(Nc1ccccc1)c1cc([N+](=O)[O-])ccc1Cl [GW9662] (first compound 0.01 µM, partner dose 2 µM), the “cleaved PARP positive nuclei fraction” value in the test on WM115 stood at 83.5%; in the test with WM1716 it was 62.2%; with WM1745, 95.3%; in the test on WM3526, 54.7%; in the test on WM3619, 79.5%; with WM451Lu, 112%.

Regarding `CO[C@@H]1[C@H](N(C)C(=O)c2ccccc2)C[C@H]2O[C@]1(C)n1c3ccccc3c3c4c(c5c6ccccc6n2c5c31)C(=O)NC4` [Midostaurin] + OCCn1cc(-c2cnc3nnn(Cc4ccc5ncccc5c4)c3n2)cn1 [PF04217903] (first compound 0.08 µM, partner dose 1 µM), the “cleaved PARP positive nuclei fraction” value came out at 45.6% in the test on WM115; 95.9% with WM1716; 91.9% in the test on WM1745; 33.1% in the test on WM3526; 174% in the test on WM3619; 102% with WM451Lu.

Consider `Cc1ccc(NC(=O)c2cccc(N(C)C)c2)cc1NC(=O)c1ccc(O)cc1` + CN(NC(=O)CC(=O)NN(C)C(=S)c1ccccc1)C(=S)c1ccccc1 [STA4783] (first compound 2 µM, partner dose 0.006 µM), for which the “cleaved PARP positive nuclei fraction” value came to 180% with WM115; 171% in the test on WM1716; 218% in the test on WM1745; 67.5% with WM3526; 163% in the test on WM3619; 55.5% with WM451Lu.

For `C=CCNC1=C2C[C@@H](C)C[C@H](OC)[C@H](O)[C@@H](C)/C=C(\C)[C@H](OC(N)=O)[C@@H](OC)/C=C\C=C(/C)C(=O)NC(=CC1=O)C2=O` [Tanespimycin] + Cn1cc(/C=C2\C(=O)Nc3cccnc32)c2ccccc21 [GW441756] (first compound 0.002 µM, partner dose 0.4 µM), the “cleaved PARP positive nuclei fraction” value came out at 158% in the test on WM115; 38.9% in the test on WM1716; 102% in the test on WM1745; 114% in the test with WM3526; 120% in the test on WM3619; 40.8% in the test with WM451Lu.

For the compound `C=CCNC1=C2C[C@@H](C)C[C@H](OC)[C@H](O)[C@@H](C)/C=C(\C)[C@H](OC(N)=O)[C@@H](OC)/C=C\C=C(/C)C(=O)NC(=CC1=O)C2=O` [Tanespimycin] + CC1(C)NC(=O)N(c2ccc([N+](=O)[O-])c(C(F)(F)F)c2)C1=O [nilutamide] (first compound 0.002 µM, partner dose 1 µM), the “cleaved PARP positive nuclei fraction” value in the test on WM115 turned out to be 113%; with WM1716, 83.3%; in the test on WM1745 it was 80.3%; with WM3526 it was 54.5%; in the test on WM3619, 105%; in the test on WM451Lu, 35.3%.

As for `CC1(C)NC(=O)N(c2ccc([N+](=O)[O-])c(C(F)(F)F)c2)C1=O` [nilutamide] + COC(=O)c1sccc1S(=O)(=O)Nc1ccc(Nc2ccccc2)cc1OC [GSK0660] (first compound 1 µM, partner dose 1 µM), the “cleaved PARP positive nuclei fraction” value is 141% in the test with WM115; 126% in the test with WM1716; 102% in the test on WM1745; 153% in the test on WM3526; 75.1% with WM3619; 69.8% with WM451Lu.

Turning to `C=CCNC1=C2C[C@@H](C)C[C@H](OC)[C@H](O)[C@@H](C)/C=C(\C)[C@H](OC(N)=O)[C@@H](OC)/C=C\C=C(/C)C(=O)NC(=CC1=O)C2=O` [Tanespimycin] + OCc1c[nH]c2ccccc12 [Indole-3-carbinol] (first compound 0.002 µM, partner dose 0.8 µM), the “cleaved PARP positive nuclei fraction” value in the test on WM115 is 98.3%; in the test with WM1716, 153%; with WM1745, 108%; with WM3526 it was 274%; in the test with WM3619, 96.6%; with WM451Lu it was 90.8%.

Turning to `Cn1nnc2c(C(N)=O)ncn2c1=O` [temozolomide] + COc1cc2c(Oc3ccc4[nH]c(C)cc4c3F)ncnc2cc1OCCCN1CCCC1 [cediranib] (first compound 2 µM, partner dose 0.4 µM), the “cleaved PARP positive nuclei fraction” value with WM115 was 107%; in the test on WM1716, 141%; in the test with WM1745, 99.5%; with WM3526 it was 63.2%; in the test with WM3619, 95%; with WM451Lu, 224%.

For `CO[C@@H]1[C@H](N(C)C(=O)c2ccccc2)C[C@H]2O[C@]1(C)n1c3ccccc3c3c4c(c5c6ccccc6n2c5c31)C(=O)NC4` [Midostaurin] + Cn1cncc1[C@@](N)(c1ccc(Cl)cc1)c1ccc2c(c1)c(-c1cccc(Cl)c1)cc(=O)n2C [tipifarnib] (first compound 0.08 µM, partner dose 0.01 µM), the “cleaved PARP positive nuclei fraction” value in the test with WM115 came to 230%; in the test with WM1716 it was 118%; in the test with WM1745 it was 103%; in the test with WM3526, 218%; in the test on WM3619 it was 94.3%; with WM451Lu, 71.8%.

With `C[C@@H]1CCN(C(=O)CC#N)C[C@@H]1N(C)c1ncnc2[nH]ccc12` + O=C(O)C(=O)Nc1sc2c(c1C(=O)O)CCNC2 [TCS401] (first compound 1 µM, partner dose 1.66667 µM), the “cleaved PARP positive nuclei fraction” value was determined as 73.5% in the test with WM115; 89.9% in the test with WM1716; 102% in the test with WM1745; 59.2% in the test with WM3526; 75.7% in the test on WM3619; 57.8% in the test with WM451Lu.

On to `CO[C@@H]1[C@H](N(C)C(=O)c2ccccc2)C[C@H]2O[C@]1(C)n1c3ccccc3c3c4c(c5c6ccccc6n2c5c31)C(=O)NC4` [Midostaurin] + NCC(=O)Nc1ccc(-n2nc(C(F)(F)F)cc2-c2ccc3c(ccc4ccccc43)c2)cc1 [OSU03012] (first compound 0.08 µM, partner dose 1 µM), for which the “cleaved PARP positive nuclei fraction” value in the test on WM115 came out at 148%; in the test with WM1716, 170%; in the test with WM1745, 109%; with WM3526, 129%; in the test on WM3619, 108%; in the test on WM451Lu it was 251%.
